# This is one part of the list.
# Legend:
# Experiment in all cases: glycan array binding signal (z-score within array); higher = stronger binding
# Conditions in all cases: glycan notation: IUPAC condensed, linker removed
# [1] = molecular target: Gal(a1-3)Gal(b1-4)GlcNAc(b1-2)Man(a1-3)[Gal(a1-3)Gal(b1-4)GlcNAc(b1-2)Man(a1-6)]Man(b1-4)GlcNAc(b1-4)GlcNAc
# How it was run: (§1)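 Negative Z-scores can be read as non-binding. The Z-score is calculated within each array and then averaged across arrays of one protein sequence at different concentrations or buffers and across linkers. Arrays, 3228 in all, were curated from the Consortium for Functional Glycomics database and kept only where the protein sequence was available.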
# [2] = molecular target: Gal(a1-3)Gal(b1-4)GlcNAc(b1-3)GalNAc
# How it was run: as §1
# [3] = molecular target: Gal(a1-3)Gal(b1-4)GlcNAc(b1-6)GalNAc
# How it was run: as §1
# [4] = molecular target: Gal(a1-3)Gal(b1-4)[Fuc(a1-3)]GlcNAc
# How it was run: as §1
# [5] = molecular target: Gal(a1-3)Gal(b1-4)[Fuc(a1-3)]GlcNAc(b1-2)Man(a1-3)[Gal(a1-3)Gal(b1-4)[Fuc(a1-3)]GlcNAc(b1-2)Man(a1-6)]Man(b1-4)GlcNAc(b1-4)GlcNAc
# How it was run: as §1
# [6] = molecular target: Gal(a1-3)GalNAc
# How it was run: as §1
# [7] = molecular target: Gal(a1-3)[Gal(a1-4)]Gal(b1-4)GlcNAc
# How it was run: as §1
# [8] = molecular target: Gal(a1-4)Gal(b1-3)GlcNAc(b1-2)Man(a1-3)[Gal(a1-4)Gal(b1-3)GlcNAc(b1-2)Man(a1-6)]Man(b1-4)GlcNAc(b1-4)GlcNAc
# How it was run: as §1
# [9] = molecular target: Gal(a1-4)Gal(b1-4)Glc
# How it was run: as §1
# [10] = molecular target: Gal(a1-4)Gal(b1-4)GlcNAc
# How it was run: as §1
# [11] = molecular target: Gal(a1-4)Gal(b1-4)GlcNAc(b1-2)Man(a1-3)[Gal(a1-4)Gal(b1-4)GlcNAc(b1-2)Man(a1-6)]Man(b1-4)GlcNAc(b1-4)GlcNAc
# How it was run: as §1
# [12] = molecular target: Gal(a1-4)Gal(b1-4)GlcNAc(b1-3)Gal(b1-4)Glc
# How it was run: as §1
# [13] = molecular target: Gal(a1-4)GlcNAc
# How it was run: as §1
# [14] = molecular target: Gal(a1-6)Glc
# How it was run: as §1
# [15] = molecular target: Gal(b1-2)Gal
# How it was run: as §1
# [16] = molecular target: Gal(b1-3)Gal
# How it was run: as §1
# [17] = molecular target: Gal(b1-3)Gal(b1-4)GlcNAc
# How it was run: as §1
# [18] = molecular target: Gal(b1-3)GalNAc
# How it was run: as §1
# [19] = molecular target: Gal(b1-3)GalNAc(a1-3)[Fuc(a1-2)]Gal(b1-4)Glc
# How it was run: as §1
# [20] = molecular target: Gal(b1-3)GalNAc(a1-3)[Fuc(a1-2)]Gal(b1-4)GlcNAc
# How it was run: as §1
# [21] = molecular target: Gal(b1-3)GalNAc(b1-3)Gal
# How it was run: as §1
# [22] = molecular target: Gal(b1-3)GalNAc(b1-3)Gal(a1-4)Gal(b1-4)Glc
# How it was run: as §1
# [23] = molecular target: Gal(b1-3)GalNAc(b1-4)Gal(b1-4)Glc
# How it was run: as §1
# [24] = molecular target: Gal(b1-3)GalNAc(b1-4)[Neu5Ac(a2-3)]Gal(b1-4)Glc
# How it was run: as §1
# [25] = molecular target: Gal(b1-3)GlcNAc
# How it was run: as §1
# [26] = molecular target: Gal(b1-3)GlcNAc(a1-3)Gal(b1-4)GlcNAc
# How it was run: as §1
# [27] = molecular target: Gal(b1-3)GlcNAc(a1-6)Gal(b1-4)GlcNAc
# How it was run: as §1
# [28] = molecular target: Gal(b1-3)GlcNAc(b1-2)Man
# How it was run: as §1
# [29] = molecular target: Gal(b1-3)GlcNAc(b1-2)Man(a1-3)[Gal(b1-3)GlcNAc(b1-2)Man(a1-6)]Man(b1-4)GlcNAc(b1-4)GlcNAc
# How it was run: as §1
# [30] = molecular target: Gal(b1-3)GlcNAc(b1-2)Man(a1-3)[Gal(b1-3)GlcNAc(b1-2)Man(a1-6)]Man(b1-4)GlcNAc(b1-4)[Fuc(a1-6)]GlcNAc
# How it was run: as §1
# [31] = molecular target: Gal(b1-3)GlcNAc(b1-2)Man(a1-3)[GlcNAc(b1-4)][Gal(b1-3)GlcNAc(b1-2)Man(a1-6)]Man(b1-4)GlcNAc(b1-4)GlcNAc
# How it was run: as §1
# [32] = molecular target: Gal(b1-3)GlcNAc(b1-2)[Gal(b1-3)GlcNAc(b1-6)]Man(a1-6)[Gal(b1-3)GlcNAc(b1-2)Man(a1-3)]Man(b1-4)GlcNAc(b1-4)GlcNAc
# How it was run: as §1
# [33] = molecular target: Gal(b1-3)GlcNAc(b1-3)Gal(b1-3)GlcNAc
# How it was run: as §1
# [34] = molecular target: Gal(b1-3)GlcNAc(b1-3)Gal(b1-4)Glc
# How it was run: as §1
# [35] = molecular target: Gal(b1-3)GlcNAc(b1-3)Gal(b1-4)GlcNAc
# How it was run: as §1
# [36] = molecular target: Gal(b1-3)GlcNAc(b1-3)Gal(b1-4)GlcNAc(b1-2)Man(a1-3)[Gal(b1-3)GlcNAc(b1-3)Gal(b1-4)GlcNAc(b1-2)Man(a1-6)]Man(b1-4)GlcNAc(b1-4)GlcNAc
# How it was run: as §1
# [37] = molecular target: Gal(b1-3)GlcNAc(b1-3)Gal(b1-4)GlcNAc(b1-2)[Gal(b1-3)GlcNAc(b1-3)Gal(b1-4)GlcNAc(b1-6)]Man(a1-6)[Gal(b1-3)GlcNAc(b1-3)Gal(b1-4)GlcNAc(b1-2)Man(a1-3)]Man(b1-4)GlcNAc(b1-4)[Fuc(a1-6)]GlcNAc
# How it was run: as §1
binder,measurement,setting,value
FliC (Clostridium difficile) (protein) MRVNTNVSALIANNQMGRNVNGQSKSMEKLSSGVRIKRAADDAAGLAISEKMRAQIKGLDQAGRNVQDGISVVQTAEGSLEETGNILQRMRTLSLQSANEINNTEEREKIADELTQLKDEIERISSSTEFNGKKLLDGTSSTIRLQVGASYGTNVSGTSNNNNEIKIQLVNTASIMASAGITTASIGSMKAGGTTGTDAAKTMVSSLDAALKSLNSSRAKLGAQQNRLESTQNNLNNTLENVTAAESRIRDTDVASEMVNLSKMNILVQASQSMLAQANQQPQGVLQLLG,glycan array binding signal (z-score),[1],8.29
same,glycan array binding signal (z-score),[2],-0.548
same,glycan array binding signal (z-score),[3],-0.906
same,glycan array binding signal (z-score),[4],0.999
same,glycan array binding signal (z-score),[5],1.28
same,glycan array binding signal (z-score),[6],-0.438
same,glycan array binding signal (z-score),[7],-0.786
same,glycan array binding signal (z-score),[8],4.1
same,glycan array binding signal (z-score),[9],-0.374
same,glycan array binding signal (z-score),[10],-0.668
same,glycan array binding signal (z-score),[11],1.34
same,glycan array binding signal (z-score),[12],0.243
same,glycan array binding signal (z-score),[13],0.077
same,glycan array binding signal (z-score),[14],0.461
same,glycan array binding signal (z-score),[15],0.699
same,glycan array binding signal (z-score),[16],-0.274
same,glycan array binding signal (z-score),[17],1.18
same,glycan array binding signal (z-score),[18],0.163
same,glycan array binding signal (z-score),[19],-0.474
same,glycan array binding signal (z-score),[20],-0.301
same,glycan array binding signal (z-score),[21],-0.119
same,glycan array binding signal (z-score),[22],-0.531
same,glycan array binding signal (z-score),[23],-0.33
same,glycan array binding signal (z-score),[24],0.636
same,glycan array binding signal (z-score),[25],-0.124
same,glycan array binding signal (z-score),[26],-0.032
same,glycan array binding signal (z-score),[27],-0.584
same,glycan array binding signal (z-score),[28],0.181
same,glycan array binding signal (z-score),[29],0.119
same,glycan array binding signal (z-score),[30],0.847
same,glycan array binding signal (z-score),[31],-0.179
same,glycan array binding signal (z-score),[32],0.489
same,glycan array binding signal (z-score),[33],-0.389
same,glycan array binding signal (z-score),[34],-0.23
same,glycan array binding signal (z-score),[35],-0.049
same,glycan array binding signal (z-score),[36],1.11
same,glycan array binding signal (z-score),[37],0.605

# Two entries picked at random from the list so far:
binder,measurement,setting,value
FliC (Clostridium difficile) (protein) MRVNTNVSALIANNQMGRNVNGQSKSMEKLSSGVRIKRAADDAAGLAISEKMRAQIKGLDQAGRNVQDGISVVQTAEGSLEETGNILQRMRTLSLQSANEINNTEEREKIADELTQLKDEIERISSSTEFNGKKLLDGTSSTIRLQVGASYGTNVSGTSNNNNEIKIQLVNTASIMASAGITTASIGSMKAGGTTGTDAAKTMVSSLDAALKSLNSSRAKLGAQQNRLESTQNNLNNTLENVTAAESRIRDTDVASEMVNLSKMNILVQASQSMLAQANQQPQGVLQLLG,glycan array binding signal (z-score),[37],0.605
same,glycan array binding signal (z-score),[11],1.34
